Results on 1 molecule are retold here after patent US6461859B1, “Enzymatic oxidation process for desulfurization of fossil fuels” (Instituto Mexicano del Petroleo, priority 1999, dated 2002).

The data set can be described thus: Biocatalytic oxidation of primary diesel fuel followed by distillation. As to conditions: oxidized by chloroperoxidase and hydrogen peroxide, distilled to a final temperature 50° C. lower than the original fraction. How it is done: After biocatalytic oxidation of the fossil fuel a second process of separation of oxidized organosulfur compounds is envisaged. Because the boiling points of sulfur compounds are incersed after biocatlytic oxidation to sulfoxides, it is possible to remove them by a single distillation. Oxidized sulfur compounds can be removed by decreasing the final distillation point. When primary diesel fuel containing 1.6% sulfur is distilled in order to obtain a 100% distillation at a temperature 50° C. lower than the original fraction, it produces a diesel fuel containing 1.27% of sulfur and 83% of the original hydrocarbons. […] Thus, a biocatalytic treatment of primary diesel oil with chloroperoxidase from Caldariomyces fumago, followed by a distillation is able to reduce the sulfur content by 80%.

B1: chloroperoxidase: chloroperoxidase (EC 1.11.1.10) from Caldariomyces fumago, hemoprotein biocatalyst (protein, UniProt P04963 21-319, looked up)
Chloroperoxidase: QEPGSGIGYPYDNNTLPYVAPGPTDSRAPCPALNALANHGYIPHDGRAISRETLQNAFLNHMGIANSVIELALTNAFVVCEYVTGSDCGDSLVNLTLLAEPHAFEHDHSFSRKDYKQGVANSNDFIDNRNFDAETFQTSLDVVAGKTHFDYADMNEIRLQRESLSNELDFPGWFTESKPIQNVESGFIFALVSDFNLPDNDENPLVRIDWWKYWFTNESFPYHLGWHPPSPAREIEFVTSASSAVLAASVTSTPSSLPSGAIGPGAEAVPLSFASTMTPFLLATNAPYYAQDPTLGPND
Regarding B1, the “sulfur content of distillate” value stood at 0.27% and the “total hydrocarbons in distillate” value turned out to be 71%.
